Holding throughout (test): BioID2 proximity labelling, HEK293 cells
In assay [1] the target is T1, CBP (human, UniProt Q92793 2-2442).
T1 construct: Endogenous prey identified by mass spectrometry; also called CBP/p300 (with p300)

Chains of the proteins cited; added tags and fusions are not shown. Residues count along the entry.
UniProt Q92793, 2-2442 limits assumed: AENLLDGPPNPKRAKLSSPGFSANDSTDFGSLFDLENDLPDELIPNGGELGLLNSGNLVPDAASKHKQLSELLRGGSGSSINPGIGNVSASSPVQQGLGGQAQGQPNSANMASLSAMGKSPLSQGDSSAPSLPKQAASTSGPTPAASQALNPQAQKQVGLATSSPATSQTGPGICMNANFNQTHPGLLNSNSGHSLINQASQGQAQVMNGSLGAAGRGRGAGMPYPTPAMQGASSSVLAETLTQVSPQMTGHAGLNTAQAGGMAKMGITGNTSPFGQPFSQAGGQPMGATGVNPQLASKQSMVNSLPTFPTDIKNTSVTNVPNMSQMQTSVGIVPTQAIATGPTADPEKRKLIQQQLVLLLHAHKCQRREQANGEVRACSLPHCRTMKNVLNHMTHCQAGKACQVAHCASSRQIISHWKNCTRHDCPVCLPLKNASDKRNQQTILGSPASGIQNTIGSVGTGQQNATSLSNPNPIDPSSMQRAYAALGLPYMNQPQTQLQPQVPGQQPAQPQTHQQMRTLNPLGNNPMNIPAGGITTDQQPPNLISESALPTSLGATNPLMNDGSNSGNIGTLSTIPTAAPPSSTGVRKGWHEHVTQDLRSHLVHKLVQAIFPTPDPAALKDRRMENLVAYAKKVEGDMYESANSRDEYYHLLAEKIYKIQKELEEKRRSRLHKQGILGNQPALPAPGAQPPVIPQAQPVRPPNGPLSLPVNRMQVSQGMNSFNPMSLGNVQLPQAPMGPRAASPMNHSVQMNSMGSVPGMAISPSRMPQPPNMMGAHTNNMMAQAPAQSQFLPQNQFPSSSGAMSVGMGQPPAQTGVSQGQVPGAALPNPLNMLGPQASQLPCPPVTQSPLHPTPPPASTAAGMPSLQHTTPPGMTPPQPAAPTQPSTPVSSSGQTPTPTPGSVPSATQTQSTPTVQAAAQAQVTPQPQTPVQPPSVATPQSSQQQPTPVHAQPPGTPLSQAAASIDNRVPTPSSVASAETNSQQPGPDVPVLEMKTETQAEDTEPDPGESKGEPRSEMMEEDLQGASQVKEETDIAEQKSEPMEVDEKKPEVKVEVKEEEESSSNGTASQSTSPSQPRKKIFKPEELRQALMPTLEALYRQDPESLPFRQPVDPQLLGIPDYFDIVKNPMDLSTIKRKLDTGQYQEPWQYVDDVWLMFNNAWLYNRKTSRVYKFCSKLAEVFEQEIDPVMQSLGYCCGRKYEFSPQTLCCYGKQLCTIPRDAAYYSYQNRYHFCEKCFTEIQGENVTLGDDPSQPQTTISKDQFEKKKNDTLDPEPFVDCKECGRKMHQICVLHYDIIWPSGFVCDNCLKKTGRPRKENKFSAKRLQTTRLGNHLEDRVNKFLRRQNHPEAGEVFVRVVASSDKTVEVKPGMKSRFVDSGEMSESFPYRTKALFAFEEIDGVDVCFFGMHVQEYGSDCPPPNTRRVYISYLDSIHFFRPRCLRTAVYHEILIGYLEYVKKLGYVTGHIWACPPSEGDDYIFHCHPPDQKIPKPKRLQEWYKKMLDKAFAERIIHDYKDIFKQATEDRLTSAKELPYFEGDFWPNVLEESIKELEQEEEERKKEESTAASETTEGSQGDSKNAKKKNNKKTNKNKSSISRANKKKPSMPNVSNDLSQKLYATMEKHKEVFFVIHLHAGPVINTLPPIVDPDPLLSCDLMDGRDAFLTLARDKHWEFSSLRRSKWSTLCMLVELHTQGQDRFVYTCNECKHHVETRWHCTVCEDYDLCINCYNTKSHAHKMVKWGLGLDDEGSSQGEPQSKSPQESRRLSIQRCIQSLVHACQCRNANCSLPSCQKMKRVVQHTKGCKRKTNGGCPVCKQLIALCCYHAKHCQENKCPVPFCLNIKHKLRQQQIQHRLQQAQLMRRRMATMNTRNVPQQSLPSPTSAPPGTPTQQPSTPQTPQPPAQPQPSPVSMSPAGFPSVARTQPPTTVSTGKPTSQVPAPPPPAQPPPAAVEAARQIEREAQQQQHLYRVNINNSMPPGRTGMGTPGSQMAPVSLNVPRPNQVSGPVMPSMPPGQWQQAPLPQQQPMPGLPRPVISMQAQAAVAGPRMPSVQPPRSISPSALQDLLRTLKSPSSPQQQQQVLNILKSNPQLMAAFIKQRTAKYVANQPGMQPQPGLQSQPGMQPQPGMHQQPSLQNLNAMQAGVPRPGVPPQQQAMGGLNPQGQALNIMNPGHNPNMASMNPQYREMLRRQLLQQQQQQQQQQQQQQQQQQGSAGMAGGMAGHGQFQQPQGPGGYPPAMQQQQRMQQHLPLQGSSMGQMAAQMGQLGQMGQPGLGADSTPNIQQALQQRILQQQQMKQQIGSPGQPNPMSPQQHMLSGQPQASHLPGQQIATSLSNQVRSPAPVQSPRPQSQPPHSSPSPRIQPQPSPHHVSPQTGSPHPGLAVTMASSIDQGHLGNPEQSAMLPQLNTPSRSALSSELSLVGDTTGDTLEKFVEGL
UniProt Q09472, 2-2414 limits assumed: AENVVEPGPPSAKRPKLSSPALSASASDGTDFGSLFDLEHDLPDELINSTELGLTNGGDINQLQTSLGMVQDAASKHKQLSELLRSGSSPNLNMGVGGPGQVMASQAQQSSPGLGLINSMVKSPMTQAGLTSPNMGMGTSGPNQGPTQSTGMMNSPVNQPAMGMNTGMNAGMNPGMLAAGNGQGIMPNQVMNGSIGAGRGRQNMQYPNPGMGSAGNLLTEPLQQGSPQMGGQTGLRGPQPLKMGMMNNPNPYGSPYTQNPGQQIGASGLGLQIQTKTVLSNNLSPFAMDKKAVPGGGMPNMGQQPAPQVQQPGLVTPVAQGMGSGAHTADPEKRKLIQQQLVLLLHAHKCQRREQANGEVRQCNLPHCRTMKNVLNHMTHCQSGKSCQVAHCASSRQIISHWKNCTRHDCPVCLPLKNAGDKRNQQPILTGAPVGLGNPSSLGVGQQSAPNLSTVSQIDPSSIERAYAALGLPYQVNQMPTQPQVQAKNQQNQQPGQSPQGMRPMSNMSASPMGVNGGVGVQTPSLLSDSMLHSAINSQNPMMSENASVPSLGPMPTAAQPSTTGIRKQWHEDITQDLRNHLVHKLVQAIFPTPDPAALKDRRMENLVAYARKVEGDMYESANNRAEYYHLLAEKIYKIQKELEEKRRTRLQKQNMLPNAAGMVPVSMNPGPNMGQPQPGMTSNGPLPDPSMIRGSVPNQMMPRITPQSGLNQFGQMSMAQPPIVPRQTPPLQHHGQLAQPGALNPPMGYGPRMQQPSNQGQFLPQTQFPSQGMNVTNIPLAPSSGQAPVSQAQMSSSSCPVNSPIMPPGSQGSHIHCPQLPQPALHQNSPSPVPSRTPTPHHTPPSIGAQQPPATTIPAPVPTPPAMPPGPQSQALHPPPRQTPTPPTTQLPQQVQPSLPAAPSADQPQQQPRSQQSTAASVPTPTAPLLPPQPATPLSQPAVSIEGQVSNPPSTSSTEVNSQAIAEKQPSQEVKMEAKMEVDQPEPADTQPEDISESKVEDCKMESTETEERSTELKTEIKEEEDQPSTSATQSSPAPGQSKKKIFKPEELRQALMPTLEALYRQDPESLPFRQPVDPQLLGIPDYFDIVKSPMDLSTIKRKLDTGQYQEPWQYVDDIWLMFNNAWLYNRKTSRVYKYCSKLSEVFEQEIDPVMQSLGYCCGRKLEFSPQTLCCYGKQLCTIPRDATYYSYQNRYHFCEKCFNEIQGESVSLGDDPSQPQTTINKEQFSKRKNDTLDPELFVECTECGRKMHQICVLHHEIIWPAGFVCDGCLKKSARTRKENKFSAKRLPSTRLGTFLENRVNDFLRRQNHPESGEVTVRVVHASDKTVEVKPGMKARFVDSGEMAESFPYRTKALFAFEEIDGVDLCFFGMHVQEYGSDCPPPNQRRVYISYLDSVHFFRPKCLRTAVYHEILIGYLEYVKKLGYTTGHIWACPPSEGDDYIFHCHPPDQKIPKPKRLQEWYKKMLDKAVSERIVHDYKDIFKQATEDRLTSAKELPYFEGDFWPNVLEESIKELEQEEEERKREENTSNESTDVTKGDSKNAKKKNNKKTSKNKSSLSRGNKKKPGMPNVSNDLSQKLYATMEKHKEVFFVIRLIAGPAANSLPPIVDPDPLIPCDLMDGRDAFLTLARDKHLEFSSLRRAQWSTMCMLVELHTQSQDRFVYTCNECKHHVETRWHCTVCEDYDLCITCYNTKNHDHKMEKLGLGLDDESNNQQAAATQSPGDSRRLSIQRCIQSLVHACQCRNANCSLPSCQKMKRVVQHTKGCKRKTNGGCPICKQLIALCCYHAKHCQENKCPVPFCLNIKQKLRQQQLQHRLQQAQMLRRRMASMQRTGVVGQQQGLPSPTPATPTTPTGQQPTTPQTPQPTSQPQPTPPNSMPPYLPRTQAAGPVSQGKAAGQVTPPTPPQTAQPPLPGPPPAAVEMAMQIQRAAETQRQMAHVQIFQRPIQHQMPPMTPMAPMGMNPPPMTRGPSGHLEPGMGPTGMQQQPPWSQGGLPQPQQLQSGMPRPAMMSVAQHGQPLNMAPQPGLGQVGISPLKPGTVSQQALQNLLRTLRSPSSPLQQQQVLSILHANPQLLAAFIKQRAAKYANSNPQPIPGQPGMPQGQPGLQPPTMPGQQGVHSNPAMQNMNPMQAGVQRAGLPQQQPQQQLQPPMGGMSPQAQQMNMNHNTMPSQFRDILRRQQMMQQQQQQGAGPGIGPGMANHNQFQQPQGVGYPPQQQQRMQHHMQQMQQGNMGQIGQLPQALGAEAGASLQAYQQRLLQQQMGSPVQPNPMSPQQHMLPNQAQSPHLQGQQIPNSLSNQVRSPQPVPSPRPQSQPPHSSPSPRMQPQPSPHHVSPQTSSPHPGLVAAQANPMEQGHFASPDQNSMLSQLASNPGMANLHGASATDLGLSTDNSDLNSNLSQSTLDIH
UniProt Q9H2F5, whole entry: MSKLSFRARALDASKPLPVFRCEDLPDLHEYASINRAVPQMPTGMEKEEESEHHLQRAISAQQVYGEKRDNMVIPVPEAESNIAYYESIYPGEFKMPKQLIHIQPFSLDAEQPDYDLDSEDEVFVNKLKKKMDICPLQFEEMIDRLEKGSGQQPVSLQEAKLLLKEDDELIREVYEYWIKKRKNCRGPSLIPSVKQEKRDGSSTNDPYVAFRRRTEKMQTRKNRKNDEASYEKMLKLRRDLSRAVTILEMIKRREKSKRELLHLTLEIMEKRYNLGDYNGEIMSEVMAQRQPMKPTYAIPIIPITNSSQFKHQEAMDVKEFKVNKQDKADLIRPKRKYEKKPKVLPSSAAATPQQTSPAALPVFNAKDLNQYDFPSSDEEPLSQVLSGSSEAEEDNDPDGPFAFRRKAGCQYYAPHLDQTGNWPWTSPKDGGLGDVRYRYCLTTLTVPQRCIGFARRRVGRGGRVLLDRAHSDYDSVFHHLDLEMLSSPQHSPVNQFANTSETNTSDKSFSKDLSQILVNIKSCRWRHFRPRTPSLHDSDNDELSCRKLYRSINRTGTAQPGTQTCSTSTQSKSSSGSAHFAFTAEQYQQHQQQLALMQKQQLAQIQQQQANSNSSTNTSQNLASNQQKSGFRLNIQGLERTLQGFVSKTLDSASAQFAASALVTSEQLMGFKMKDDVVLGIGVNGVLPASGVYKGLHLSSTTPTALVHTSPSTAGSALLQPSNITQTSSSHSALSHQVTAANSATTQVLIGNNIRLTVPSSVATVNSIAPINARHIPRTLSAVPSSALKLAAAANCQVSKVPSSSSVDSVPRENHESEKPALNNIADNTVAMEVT

Assay [2] concerns the target T2, p300 (human, UniProt Q09472 2-2414).
T2 construct: Endogenous prey identified by mass spectrometry; also called EP300; CBP/p300 (with CBP)

The target of assay [3] is T3, EPC1 (human, UniProt Q9H2F5 1-836, limits assumed).
T3 construct: also called NuA4 subunit EPC1

B1: KLF15 fused to BioID2 (BirA from Aquifex aeolicus) and FLAG (other, human;Aquifex aeolicus, UniProt Q9UIH9 1-416, looked up)
chain: MVDHLLPVDENFSSPKCPVGYLGDRLVGRRAYHMLPSPVSEDDSDASSPCSCSSPDSQALCSCYGGGLGTESQDSILDFLLSQATLGSGGGSGSSIGASSGPVAWGPWRRAAAPVKGEHFCLPEFPLGDPDDVPRPFQPTLEEIEEFLEENMEPGVKEVPEGNSKDLDACSQLSAGPHKSHLHPGSSGRERCSPPPGGASAGGAQGPGGGPTPDGPIPVLLQIQPVPVKQESGTGPASPGQAPENVKVAQLLVNIQGQTFALVPQVVPSSNLNLPSKFVRIAPVPIAAKPVGSGPLGPGPAGLLMGQKFPKNPAAELIKMHKCTFPGCSKMYTKSSHLKAHLRRHTGEKPFACTWPGCGWRFSRSDELSRHRRSHSGVKPYQCPVCEKKFARSDHLSKHIKVHRFPRSSRSVRSVN
notes: Tetracycline-inducible bait in HEK293 Flp-In T-REx cells; not shown: BioID2 biotin ligase (BirA from Aquifex aeolicus), C-terminal tag
For the molecule B1, the binding result in assay [1] and in assay [2] was “binds” each time.

B2: HOXB2 fused to BioID2 (BirA from Aquifex aeolicus) and FLAG (other, human;Aquifex aeolicus, UniProt P14652 1-356, looked up)
chain: MNFEFEREIGFINSQPSLAECLTSFPAVLETFQTSSIKESTLIPPPPPFEQTFPSLQPGASTLQRPRSQKRAEDGPALPPPPPPPLPAAPPAPEFPWMKEKKSAKKPSQSATSPSPAASAVPASGVGSPADGLGLPEAGGGGARRLRTAYTNTQLLELEKEFHFNKYLCRPRRVEIAALLDLTERQVKVWFQNRRMKHKRQTQHREPPDGEPACPGALEDICDPAEEPAASPGGPSASRAAWEACCHPPEVVPGALSADPRPLAVRLEGAGASSPGCALRGAGGLEPGPLPEDVFSGRQDSPFLPDLNFFAADSCLQLSGGLSPSLQGSLDSPVPFSEEELDFFTSTLCAIDLQFP
notes: as for B1
B2: the binding result in assay [1] and in assay [2] was “binds” throughout.

B3: KLF6 fused to BioID2 (BirA from Aquifex aeolicus) and FLAG (other, human;Aquifex aeolicus, UniProt Q99612 1-283, looked up)
chain: MDVLPMCSIFQELQIVHETGYFSALPSLEEYWQQTCLELERYLQSEPCYVSASEIKFDSQEDLWTKIILAREKKEESELKISSSPPEDTLISPSFCYNLETNSLNSDVSSESSDSSEELSPTAKFTSDPIGEVLVSSGKLSSSVTSTPPSSPELSREPSQLWGCVPGELPSPGKVRSGTSGKPGDKGNGDASPDGRRRVHRCHFNGCRKVYTKSSHLKAHQRTHTGEKPYRCSWEGCEWRFARSDELTRHFRKHTGAKPFKCSHCDRCFSRSDHLALHMKRHL
notes: as for B1
For B3, the binding result in assay [3] is “binds”.

The record behind these values is patent US20240309360A1 (GOVERNING COUNCIL OF THE UNIVERSITY OF TORONTO, published 2024).
